Results published in PubChem BioAssay AID2551 (National Center for Advancing Translational Sciences (NCATS), 2010).
Among all 310,000 compounds or so, about 17,000 (5.5%) were called active. Inconclusive means that the source gave no clear call. Such entries were picked first, then a sample of the others. The call rests on the fitted dose curve; in most records, active means well fitted inhibition curve with a large enough effect; inconclusive means small, poorly fitted or top-dose-only effect, or effect the other way; inactive means no such curve, though single readings can be large or run the other way. A potency beside an inconclusive call is a rough fit, not a confirmed value.
Further: nearly all actives have a fitted effect of over 60% in size.
Potency means the concentration at half of the fitted maximal effect.

Chains of the proteins cited; added tags and fusions are not shown. Lines headed by an entry give the natural chain unless they say otherwise; changes in a name come on top.
UniProt P51450: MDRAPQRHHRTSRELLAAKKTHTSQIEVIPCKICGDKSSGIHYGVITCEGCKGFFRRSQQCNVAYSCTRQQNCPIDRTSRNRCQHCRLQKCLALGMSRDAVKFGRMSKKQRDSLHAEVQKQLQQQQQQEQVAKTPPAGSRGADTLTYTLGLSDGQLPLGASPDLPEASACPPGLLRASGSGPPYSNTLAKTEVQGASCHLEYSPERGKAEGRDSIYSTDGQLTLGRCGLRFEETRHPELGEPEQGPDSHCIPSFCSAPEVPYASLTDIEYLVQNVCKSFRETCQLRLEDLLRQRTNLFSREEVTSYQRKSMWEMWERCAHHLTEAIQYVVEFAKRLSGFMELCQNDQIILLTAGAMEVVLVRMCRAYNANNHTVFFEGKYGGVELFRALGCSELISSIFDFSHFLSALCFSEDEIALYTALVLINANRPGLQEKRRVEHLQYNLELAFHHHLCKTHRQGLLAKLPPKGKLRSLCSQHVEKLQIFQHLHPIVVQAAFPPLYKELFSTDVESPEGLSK

The compounds below were run against Nuclear receptor ROR-gamma (Mus musculus) (UniProt P51450) (assay: qHTS for inhibitors of ROR gamma transcriptional activity). Details: Drosophila S2 Gal4-RORgamma UAS-luciferase reporter, 20 h; series mostly up to 53.6 µM.
Procedure, shortened: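 Drosophila Schneider cells stably carrying a metallothionein-driven Gal4 DBD–ROR gamma fusion and a UAS-Photinus luciferase reporter were exposed to compound for 1 hr, then induced with copper sulfate (700 uM final) for 20 hr at ambient temperature before luminescence reading.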
For `CCCOc1ccc(S(=O)(=O)NCCCN2CCOCC2)c2ccccc12`, the Potency was active: 10 µM.
`CN(C)S(=O)(=O)N1CCC(Oc2ccc(C(=O)NC3Cc4ccccc4C3)cc2)CC1` was tested, and the Potency was inconclusive: 7.94 µM [activator, partial curve].
For `COC(=O)Sc1nnc(-c2ccc(Br)cc2)o1`, the Potency was active: 17.8 µM.
With `Cc1cc(NC(=O)Nc2cccc(Cl)c2)n(C(C)(C)C)n1` the Potency was “inactive”.
For `CCCCc1c2ccccc2nc2[nH]c3ccccc3c12`, the Potency was inconclusive: 15.8 µM [inhibitor, single point].
`O=C(COc1ccc(Cl)cc1)Nc1nc(-c2ccncc2)cs1` was tested, and the Potency was inconclusive: 0.0398 µM [activator, full curve, poor fit].
In the case of `COc1cc(/C=C2\SC(=S)N(Nc3ncc(C(F)(F)F)cc3Cl)C2=O)cc(OC)c1OC`, the Potency is reported as inconclusive: 12.6 µM [inhibitor, partial curve, poor fit].
For `COc1ccc(S(=O)(=O)Nc2ccc(S(=O)(=O)N3CCCCC3)cc2)cc1OC`, the Potency was inconclusive: 35.5 µM [activator, single point].
For `COCCNc1nc2c(c(=O)n(C)c(=O)n2C)n1Cc1cccc(C)c1`, the Potency was inconclusive: 35.5 µM [inhibitor, single point].
With `COc1ccc(CCNC(=O)CCNC(=O)c2ccco2)cc1` the Potency was “inactive”.
With `COc1ccc(CCNS(=O)(=O)c2csc(C(N)=O)c2)cc1OC` the Potency was “inactive”.
With `O=C(NCCCN1CCOCC1)c1ccc2c(c1)N(Cc1cccc(F)c1)C(=O)c1ccccc1S2` the Potency was inconclusive: 15.8 µM [activator, single point].
In the case of `CCC(C)C1NC(=O)C(Cc2ccc(O)cc2)NC(=O)C(N)CSSCC(C(=O)N2CCCC2C(=O)NC(CC(C)C)C(=O)NCC(N)=O)NC(=O)C(CC(N)=O)NC(=O)C(CCC(N)=O)NC1=O` (stereo not drawn), the Potency is reported as “inactive”.
With `Cc1cc(C(C)(C)C)cc(C)c1Cn1c2[n+](c3ccc(C(F)(F)F)cc31)CCCCC2` the Potency was inconclusive: 35.5 µM [inhibitor, single point].
In the case of `Cc1ccc(S(=O)(=O)N2CCN(S(=O)(=O)N3CCCCC3)CC2)c(C)c1`, the Potency is reported as “inactive”.
In the case of `Fc1cccc2sc(N3CCOCC3)nc12`, the Potency is reported as “inactive”.
For `CCCC(=O)OCCNc1cc(Sc2nc3ccccc3[nH]2)c2nonc2c1[N+](=O)[O-]`, the Potency was active: 2.82 µM.
In the case of `Cc1cccc(-n2nnnc2SCC(=O)NCC2CCCO2)c1` (stereo not drawn), the Potency is reported as “inactive”.
For `CCOc1cc(CNc2ccc(O)cc2)cc(Br)c1OCc1ccccc1F`, the Potency was inconclusive: 22.4 µM [inhibitor, single point].
In the case of `CCSc1nnc2c(n1)OC(C)(C)Nc1ccccc1-2`, the Potency is reported as inconclusive: 1.26 µM [inhibitor, single point].
With `COc1ccc(OC)c(-c2cc(C(=O)N3CCc4ccccc4C3)no2)c1` the Potency was inconclusive: 35.5 µM [inhibitor, single point].
With `COc1ccc(C(=O)NCCSc2ccccn2)cc1` the Potency was active: 12.6 µM.
`CN(C)/C=C1\NC(=S)N(c2ccc(Cl)cc2)C1=O` was tested, and the Potency was “inactive”.
With `Cc1ccccc1NC(=S)N/N=C1\CC(C)(C)Oc2ccc(O)cc21` the Potency was inconclusive: 0.631 µM [inhibitor, single point].
With `CN(C)C(=S)N=Nc1[nH]c2ccccc2c1O` the Potency was active: 0.891 µM.
With `COc1ccc(CCNC(=O)c2cc3c(=O)n4ccccc4nc3n(CCCN3CCOCC3)c2=N)cc1` the Potency was “inactive”.
`CC1CCc2ccccc2N1C(=O)c1cccs1` (stereo not drawn) was tested, and the Potency was “inactive”.
`Cc1cccc(OCC(=O)Nc2nnc(-c3ccco3)s2)c1` was tested, and the Potency was inconclusive: 17.8 µM [activator, partial curve].
`CCOC(=O)c1ccc(NC(=S)NC(=O)C2CCCC2)cc1` was tested, and the Potency was active: 7.08 µM.
For `CC(C)CC(O)C1CCN(C(=O)CCc2nnc(-c3ccc4c(c3)OCO4)o2)CC1` (stereo not drawn), the Potency was inconclusive: 15.8 µM [activator, single point].
With `Cc1ccc(NC(=O)C2CC3CCC2C3)c(Br)c1` (stereo not drawn) the Potency was inconclusive: 35.5 µM [activator, single point].
With `COc1cccc(CC(=O)n2nc(N)c3cc4ccc(OC)cc4nc32)c1` the Potency was “inactive”.
With `Cc1ccc(C2N(c3ccc(Cl)c(Cl)c3)C(=O)C3CCCN32)o1` (stereo not drawn) the Potency was inconclusive: 6.31 µM [inhibitor, single point].
With `Cc1c(Cl)cnc(NC(=O)COC(=O)CCc2nc3ccccc3s2)c1Cl` the Potency was “inactive”.
In the case of `Cc1ccc(C23CC4CC(CC(NC(=O)N5CCN(C)CC5)(C4)C2)C3)cc1`, the Potency is reported as active: 12.6 µM.
In the case of `COc1ccccc1OCCn1nnc2ccccc21`, the Potency is reported as “inactive”.
For `CN(C)c1ccnc(Oc2ccc(C(C)(C)C)cc2)c1C#N`, the Potency was inconclusive: 11.2 µM [activator, partial curve].
`CCOc1cccc(C(=O)Nc2ccc(NC(=O)c3cc4ccccc4o3)c(OC)c2)c1` was tested, and the Potency was inconclusive: 35.5 µM [inhibitor, single point].
In the case of `Cc1ccc(S(=O)(=O)Nc2cc3c(cc2N2CCOCC2)n(C)c(=O)c(=O)n3C)cc1`, the Potency is reported as “inactive”.
In the case of `O=C(c1cc(C2CC2)nc2ccccc12)N1N=C(C(F)F)CC1(O)C(F)F` (stereo not drawn), the Potency is reported as “inactive”.
With `CC(C)N(C(=O)CSc1nc2ccccc2n1-c1ccccc1)C(C)C` the Potency was active: 11.2 µM.
In the case of `COc1ccc2nc3oc(C(=O)N4CCN(c5cccc(Cl)c5)CC4)cc3cc2c1`, the Potency is reported as inconclusive: 10 µM [activator, partial curve].
With `S=c1[nH]nc(-c2ccco2)n1/N=C/c1cccc(Cl)c1` the Potency was active: 14.1 µM.
With `C/C(=N\NC(=O)c1sccc1-n1cccc1)c1cccs1` the Potency was inconclusive: 14.1 µM [inhibitor, single point].
For `CCOc1c2ccc(C(=O)NCc3ccc(OC(F)(F)F)cc3)cc2nn1C`, the Potency was inconclusive: 17.8 µM [activator, single point].
In the case of `CCOC(=O)C1(Cc2ccccc2C(F)(F)F)CCN(C2CCN(C(C)C)CC2)CC1`, the Potency is reported as “inactive”.
For `CCN1C(=O)[C@H]2[C@@H](c3ccc(C)cc3)N3C(=O)N(c4ccc(C(F)(F)F)cc4)C(=O)[C@@]3(CC(C)C)[C@H]2C1=O`, the Potency was inconclusive: 35.5 µM [activator, single point].
`C=CCc1cccc(/C=N/NC(=O)c2ccc3nc[nH]c3c2)c1O` was tested, and the Potency was inconclusive: 0.282 µM [inhibitor, full curve, poor fit].
In the case of `CSc1ccc(N/N=C(/C#N)S(=O)(=O)C(C)(C)C)cc1`, the Potency is reported as inconclusive: 28.2 µM [activator, partial curve].
With `O=C(c1ccco1)N1CCN(S(=O)(=O)c2cccc(Cl)c2)CC1` the Potency was “inactive”.
In the case of `Cc1cccc(NC(=O)C2COc3ccccc3O2)n1` (stereo not drawn), the Potency is reported as “inactive”.
For `Cc1ccc(-c2nn(-c3ccccc3)cc2/C=N/NS(=O)(=O)c2ccccc2)cc1`, the Potency was inconclusive: 31.6 µM [activator, single point].
In the case of `CC1CCN(S(=O)(=O)c2cn(CC(=O)N3CCN(c4cccc(C(F)(F)F)c4)CC3)cn2)CC1`, the Potency is reported as inconclusive: 35.5 µM [activator, single point].
For `Cc1ccccc1N1C(S)=C(C#N)C(=O)NC12CCCCC2`, the Potency was “inactive”.
In the case of `C[C@@]12C(=O)OC(=O)[C@@]1(C)[C@@H]1CC[C@@H]2O1`, the Potency is reported as “inactive”.
With `COc1cccc(S(=O)(=O)Nc2ccc3c(c2)OCCO3)c1` the Potency was inconclusive: 35.5 µM [activator, single point].
`COC(=O)C(CC(C)C)NS(=O)(=O)c1ccccc1Br` (stereo not drawn) was tested, and the Potency was inconclusive: 31.6 µM [activator, single point].
For `O=C(Nc1ccc2c(c1)C(=O)N(CC1CCCO1)C2=O)c1ccc(Cl)c(Cl)c1` (stereo not drawn), the Potency was inconclusive: 3.98 µM [activator, full curve, poor fit].
`C/C(=N\NC(=O)c1ccc2c(c1)OCCO2)c1ccccc1` was tested, and the Potency was active: 5.62 µM.
In the case of `Cc1ccc(C(=O)OCC(=O)c2cc(C)n(CC3CCCO3)c2C)cc1` (stereo not drawn), the Potency is reported as inconclusive: 31.6 µM [activator, single point].
In the case of `O=C(CCCCn1c(=S)[nH]c2ccsc2c1=O)NCc1ccc2c(c1)OCO2`, the Potency is reported as active: 14.1 µM.
`CCCCCn1c(N2CCN(Cc3ccccc3)CC2)nc2c1c(=O)[nH]c(=O)n2C` was tested, and the Potency was inconclusive: 5.62 µM [inhibitor, single point].
`COc1cc(N2CCCC2)ccc1[N+](=O)[O-]` was tested, and the Potency was inconclusive: 31.6 µM [activator, single point].
`CCOC(=O)/C(C#N)=C\c1cccnc1` was tested, and the Potency was “inactive”.
With `CC1CCCC(C)N1C(=O)c1cc(-c2ccc(Cl)c(Cl)c2)on1` (stereo not drawn) the Potency was inconclusive: 35.5 µM [activator, single point].
For `O=C(c1noc2c1CCCC2)N1CCN(Cc2ccccc2)CC1`, the Potency was inconclusive: 17.8 µM [activator, partial curve, poor fit].
`Cc1nn(C)c(Cl)c1CN1CCC(CO)(CCOc2ccccc2)CC1` was tested, and the Potency was inconclusive: 8.91 µM [activator, partial curve].
In the case of `COc1cccc(CN(C)C(=O)CNC(=O)c2ccc(-c3ccccc3)cc2)c1OC`, the Potency is reported as inconclusive: 17.8 µM [activator, single point].
`COc1ccc(CNC(=O)C2CCC(CNS(=O)(=O)c3cccs3)CC2)cc1` (stereo not drawn) was tested, and the Potency was inconclusive: 8.91 µM [activator, partial curve].
With `CN1CCN(c2cc(N3CCc4ccccc4C3)c(F)cc2[N+](=O)[O-])CC1` the Potency was “inactive”.
`O=C(NNc1nc2c(F)cc(F)cc2s1)c1ccccc1` was tested, and the Potency was active: 5.01 µM.
For `CC(=O)c1ccc(NC(=O)c2cc(CC(C)C)nc3ccccc23)cc1`, the Potency was inconclusive: 1.78 µM [activator, full curve].
In the case of `CCOC(=O)c1cccc(NC(=O)c2cncc(Br)c2)c1`, the Potency is reported as inconclusive: 5.62 µM [activator, partial curve].
